Calls as published in the ROBIN set (doi:10.1002/anie.202211358).

Targets, with sequences 5′ to 3′:
SAM-II: SAM-II riboswitch RNA pseudoknot, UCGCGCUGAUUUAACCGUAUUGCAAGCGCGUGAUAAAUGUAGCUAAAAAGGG. About 200 hits among about 21,000 compounds.
PreQ1: PreQ1 riboswitch RNA pseudoknot, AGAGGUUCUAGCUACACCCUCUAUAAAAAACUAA. From B. subtilis. About 170 hits among about 24,000 compounds.
TPP: TPP riboswitch RNA three-way junction, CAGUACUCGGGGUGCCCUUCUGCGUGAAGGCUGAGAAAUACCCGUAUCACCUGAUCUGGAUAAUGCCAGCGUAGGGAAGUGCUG. About 160 hits among about 24,000 compounds.

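The test is a small-molecule microarray: each compound is printed twice on a reactive slide, and binding shows as fluorescence of the labelled oligonucleotide after washing. The data file lists only calls. An earlier report of the laboratory on the PreQ1, TPP and SAM-II riboswitches (doi:10.1038/s41467-019-09493-3) used 1 µM RNA for 2 h and required a mean Z-score above 3 (spot signal-to-noise against the whole library), a score well above that on a control array, and duplicate spots agreeing (coefficient of variation under 100); it then also set aside compounds that hit other targets, which this list keeps. The cut-offs behind this list may differ. A missing hit is not proof of no binding, and a hit is not a measured affinity.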 Key: Y = hit, N = tested without a hit. The compounds are a random part of those screened. A dash means that no call is listed here.

Compound | SAM-II | PreQ1 | TPP
CN(NC(=O)C(=O)NCc1ccco1)C(=O)NC1CCCCC1 | N | N | N
O=C(Nc1cccc2c1CCCC2)N1Cc2cnn(CCO)c2C1 | N | N | N
Cc1ccc(NCC(=O)n2nc(C)cc2C)c(C)c1 | N | N | N
COc1ccc(C)cc1Nc1c(-c2cc(C)c(C)cc2C)c(=O)c1=O | - | N | N
COc1ccc(-c2ccc3c(N4CCOC[C@H]4C)nc(N4CCOC[C@H]4C)nc3n2)cc1CO | N | N | N
CC(Cn1ccnc1)NCc1cc(-c2ccccc2Cl)on1 (centres unmarked) | N | N | N
O=S(=O)(CC1CS1)c1ccc(Oc2ccccc2)cc1 (centres unmarked) | N | N | N
c1cc(-c2ccc(CN3CCC4(CCNCC4)C3)o2)[nH]n1 | N | N | N
Nc1nc(-c2cc3cc(Br)ccc3oc2=O)cs1 | N | N | N
CC(C)Nc1cc(C(F)(F)F)cc2nc(NC(=O)c3cccnc3)nn12 | N | N | N
O=S(=O)(NC[C@@H]1CCNC[C@H]1O)c1ccc(OC(F)(F)F)cc1 | N | N | N
CN(Cc1cc(C(C)(C)C)n[nH]1)c1nccc(N2CCCC(O)C2)n1 (centres unmarked) | N | N | N
O=C1NC(=O)C(=Cc2cccc(C(F)(F)F)c2)S1 | N | N | N
C=CCN1C(=O)C2(C(C#N)=C(N)OC3=C2C(=O)CCC3)c2ccccc21 (centres unmarked) | N | N | N
CCOC(=O)C1=C(N)OC2=C(C(=O)CC(C)(C)C2)C1c1ccc(C)cc1C (centres unmarked) | N | N | N
Cc1ccccc1OCCn1c(C(C)O)nc2ccccc21 (centres unmarked) | - | N | N
CC1(C)CC(N(CCCO)C(=O)c2ccccc2)CCO1 (centres unmarked) | N | N | N
CCOC(=O)c1sc2nc(-c3ccc(OC)cc3)cc(C(F)(F)F)c2c1N | N | N | N
CC(C)c1nc(CN(C)C(=O)CCc2n[nH]c(N)n2)no1 | N | N | N
Cc1cc(N2CCC(NC(C)c3n[nH]c(C)n3)CC2)nc(-c2ccccc2)n1 (centres unmarked) | N | N | N
O=C1OC(Nc2ccccc2Br)c2ccccc21 (centres unmarked) | N | N | N
CCOC(=O)Nc1ccc(NCc2ccc(F)cc2)cc1N | N | N | N
C=CCc1ccccc1OCC(O)CN1CCCCC1 (centres unmarked) | N | N | N
CCOc1ccc(CNc2ccc3c(c2)nc(CN2CCOCC2)n3C)cc1 | N | N | N
O=C(CC1CNCCO1)NCc1cccc(-c2ccccc2)c1 (centres unmarked) | N | N | N
COc1ccc(-c2cc(Nc3cccc(O)c3)nc(C)n2)cc1 | - | N | N
N[C@H]1CN(C(=O)CN2CCN(c3ncccn3)CC2)C[C@@H]1c1ccccc1 | N | N | N
Oc1nc(O)n2ncnc2n1 | N | N | N
CNc1ncccc1CN(CCO)Cc1ccc(SC)cc1 | N | N | N
CCOC(=O)c1cc(Nc2cccc(OC)c2)c2cc(Cl)ccc2n1 | N | N | N
CCc1nc2cc(-c3cc(NCCO)nc4[nH]ccc34)cnc2[nH]1 | N | N | N
COC(=O)CCC(=O)c1oc2ccc(OC)cc2c1N | N | N | N
Nc1cc(C(=O)N2CCC(c3nccn3Cc3cscn3)CC2)ccn1 | N | N | N
COc1ccc(Cn2nnc(C(=O)NCc3ccc(C)cc3)c2N)cc1Br | N | N | N
COc1cc(-c2c(C#N)c(N)nc3nc(S)[nH]c(=O)c23)ccc1O | N | N | N
COc1ccc([C@@H]2C[C@H](c3ccccc3Cl)n3nc(N)nc3N2)cc1 | N | N | N
CCOc1ccc(C2c3c(-c4cc(C)ccc4O)n[nH]c3C(=O)N2CCO)cc1OC (centres unmarked) | - | N | N
Cn1cccc1CNCCc1ccc(F)cc1 | N | N | N
CC1CCCCC1=NNC(=O)CNc1ccc(F)cc1 (centres unmarked) | N | N | N
Clc1c(Cl)c(Cl)c2[nH]nnc2c1Cl | N | N | N
C=CCn1cc(CNC[C@H]2C[C@H]3C=C[C@H]2C32CC2)c(C)n1 | N | N | N
COc1ccc(S(=O)(=O)C2CS(=O)(=O)CC2NCCC2=CCCCC2)cc1C (centres unmarked) | N | N | N
Cc1ccc(Nc2c(-c3ccc(C)o3)nc3ccc(Br)cn23)cc1 | N | N | N
Nc1n[nH]c2nc3ccccc3cc12 | N | N | N
CCOc1ccccc1-c1nc(CN2CCN(CCCO)CC2)c(C)o1 | N | N | N
Cc1cc(S(=O)(=O)[C@H]2CS(=O)(=O)C[C@@H]2NC2CC2)ccc1F | - | N | N
CC(=O)c1ccc(Nc2cc(C)nc3nc(-c4ccccc4C)nn23)cc1 | - | N | N
COc1ccc(CN2C[C@@H](CN3CCCCC3)[C@@H](CO)C2)cc1O | N | N | N
O=C(NCc1ccc2c(c1)OCO2)c1ccc(CN2[C@H]3CCNC[C@@H]2CC3)[nH]c1=O | N | N | N
COc1cc(-c2c(C#N)c(N)nc3c2CC(N)CC3)ccc1F (centres unmarked) | N | N | N
O=C(CCn1cnnn1)N[C@H]1CC[C@H]1NC1CCCCCCC1 | N | N | N
COc1ccc(CNc2ccc3c(c2)ncn3-c2ccccc2)cc1 | N | N | N
CCC(CO)N(Cc1ccco1)C(=O)Nc1c(C)cnn1C1CCCC1 (centres unmarked) | N | N | N
Cc1cccnc1N1CCN(C(=O)CN2CCCC(O)C2)CC1 (centres unmarked) | N | N | N
COCCN1CC2(CCCN(C(=O)Cn3nc(C)cc3N)C2)CCC1=O (centres unmarked) | N | N | N
Cc1ccc2oc3c(c(=O)c2c1)C1(C(=O)N(C)c2ccccc21)N(CCCO)C3=O (centres unmarked) | - | N | N
COc1ccc(-c2noc(Cn3c(CO)nc4ccccc43)n2)cc1 | N | N | N
COc1ccc(CNCCc2ccc(OC)c(OC)c2)cc1 | N | N | N
C[C@@H]1CN(c2cc(Sc3ccc(F)cc3)nc(N)n2)C[C@]1(C)O | N | N | N
CC(C)C[C@H](N)c1nnc(SCc2ccc(Cl)cc2Cl)o1 | N | N | N
NC1(C(=O)NCc2cccnc2Oc2ccc(F)cc2F)CCC1 | N | N | N
O=C(c1ccccc1)c1ccc(-c2ccc(O)cc2)cc1 | N | N | N
Nc1nc2c(c(N3CCC(Oc4ccccc4F)CC3)n1)CCNCC2 | N | N | N
OCc1cn(Cc2ccccc2Cl)c2ccccc12 | N | N | N
CC(C)(C)SCC(O)Cn1c2ccccc2c2ccccc21 (centres unmarked) | N | N | N
O=S1CCC(NCCCn2ccc3ccccc32)CC1 (centres unmarked) | N | N | N
Cc1nc(N)nc(C)c1CC(=O)N[C@@H]1CC[C@@H](N)C1 | N | N | N
COCCN1CCCC(O)(CNCc2nc3ccccc3s2)C1=O (centres unmarked) | N | N | N

The first 9 entries again:

Compound	SAM-II	PreQ1	TPP
CN(NC(=O)C(=O)NCc1ccco1)C(=O)NC1CCCCC1	N	N	N
O=C(Nc1cccc2c1CCCC2)N1Cc2cnn(CCO)c2C1	N	N	N
Cc1ccc(NCC(=O)n2nc(C)cc2C)c(C)c1	N	N	N
COc1ccc(C)cc1Nc1c(-c2cc(C)c(C)cc2C)c(=O)c1=O	-	N	N
COc1ccc(-c2ccc3c(N4CCOC[C@H]4C)nc(N4CCOC[C@H]4C)nc3n2)cc1CO	N	N	N
CC(Cn1ccnc1)NCc1cc(-c2ccccc2Cl)on1 (centres unmarked)	N	N	N
O=S(=O)(CC1CS1)c1ccc(Oc2ccccc2)cc1 (centres unmarked)	N	N	N
c1cc(-c2ccc(CN3CCC4(CCNCC4)C3)o2)[nH]n1	N	N	N
Nc1nc(-c2cc3cc(Br)ccc3oc2=O)cs1	N	N	N